One data set addresses MLE dsRBD2 (UniProt P24785). As to the kind of experiment: filter binding. Particulars: 5 mM Mg2+; Filter binding: 20 mM HEPES/NaOH pH 8.0, 150 mM NaCl, 5 mM MgCl2, on ice; recombinant protein; residues 155-257; protein details: N-terminal His6 removed by TEV; label: 5' label.
For the next data set, the target named is MLE full-length K54E (UniProt P24785). In words: filter binding. Particulars: 5 mM Mg2+; Filter binding: 20 mM HEPES/NaOH pH 8.0, 150 mM NaCl, 5 mM MgCl2, on ice; recombinant protein; residues 1-1293; protein details: FLAG; label: 5' label.
The target in data set [1] is MLE dsRBD1 K4E (UniProt P24785). As to the kind of experiment: filter binding. The note with it: 5 mM Mg2+; Filter binding: 20 mM HEPES/NaOH pH 8.0, 150 mM NaCl, 5 mM MgCl2, on ice; recombinant protein; residues 1-84; protein details: N-terminal His6 removed by TEV; label: 5' label.
A further data set has as its target MLE dsRBD1,2 K54E (UniProt P24785). As to the kind of experiment: filter binding. The note with it: 5 mM Mg2+; Filter binding: 20 mM HEPES/NaOH pH 8.0, 150 mM NaCl, 5 mM MgCl2, on ice; recombinant protein; residues 1-257; protein details: N-terminal His6 removed by TEV; label: 5' label.
Data set [2] concerns the target MLE dsRBD1,2 (UniProt P24785). As to the kind of experiment: filter binding. Particulars: 5 mM Mg2+; Filter binding: 20 mM HEPES/NaOH pH 8.0, 150 mM NaCl, 5 mM MgCl2, on ice; recombinant protein; residues 1-257; protein details: N-terminal His6 removed by TEV; label: 5' label.
Data set [3] addresses MLE dsRBD1,2 linker deletion del85-140 (UniProt P24785). In words: filter binding. The note with it: affinity similar to dsRBD1,2; Filter binding: 20 mM HEPES/NaOH pH 8.0, 150 mM NaCl, 5 mM MgCl2, on ice; recombinant protein; residues 1-257; protein details: N-terminal His6 removed by TEV; label: 5' label.
In data set [4] the target is MLE dsRBD1 K53+54E K53E,K54E (UniProt P24785). As to the kind of experiment: filter binding. Particulars: 5 mM Mg2+; Filter binding: 20 mM HEPES/NaOH pH 8.0, 150 mM NaCl, 5 mM MgCl2, on ice; recombinant protein; residues 1-84; protein details: N-terminal His6 removed by TEV; label: 5' label.
The next data set has as its target MLE dsRBD1,2 K53E (UniProt P24785). As to the kind of experiment: filter binding. Particulars: 5 mM Mg2+; Filter binding: 20 mM HEPES/NaOH pH 8.0, 150 mM NaCl, 5 mM MgCl2, on ice; recombinant protein; residues 1-257; protein details: N-terminal His6 removed by TEV; label: 5' label.
The next data set concerns the target MLE dsRBD1,2 K4E (UniProt P24785). In words: filter binding. Particulars: 5 mM Mg2+; Filter binding: 20 mM HEPES/NaOH pH 8.0, 150 mM NaCl, 5 mM MgCl2, on ice; recombinant protein; residues 1-257; protein details: N-terminal His6 removed by TEV; label: 5' label.
Data set [5] has as its target MLE full-length K54+225E K54E,K225E (UniProt P24785). As to the kind of experiment: filter binding. Particulars: 5 mM Mg2+; Filter binding: 20 mM HEPES/NaOH pH 8.0, 150 mM NaCl, 5 mM MgCl2, on ice; recombinant protein; residues 1-1293; protein details: FLAG; label: 5' label.
The target of data set [6] is MLE dsRBD1 (UniProt P24785). In words: filter binding. Particulars: 5 mM Mg2+, Filter binding: 20 mM HEPES/NaOH pH 8.0, 150 mM NaCl, 5 mM MgCl2, on ice, recombinant protein, residues 1-84, protein details: N-terminal His6 removed by TEV.
Data set [7] deals with MLE dsRBD1,2 K53+54E K53E,K54E (UniProt P24785). In words: filter binding. The note with it: 5 mM Mg2+; Filter binding: 20 mM HEPES/NaOH pH 8.0, 150 mM NaCl, 5 mM MgCl2, on ice; recombinant protein; residues 1-257; protein details: N-terminal His6 removed by TEV; label: 5' label.
For data set [8], the target named is MLE dsRBD1,2 K54+225E K54E,K225E (UniProt P24785). As to the kind of experiment: filter binding. Particulars: 5 mM Mg2+; Filter binding: 20 mM HEPES/NaOH pH 8.0, 150 mM NaCl, 5 mM MgCl2, on ice; recombinant protein; residues 1-257; protein details: N-terminal His6 removed by TEV; label: 5' label.
For the next data set, the target named is MLE full-length (UniProt P24785). As to the kind of experiment: filter binding. The note with it: 5 mM Mg2+; Filter binding: 20 mM HEPES/NaOH pH 8.0, 150 mM NaCl, 5 mM MgCl2, on ice; recombinant protein; residues 1-1293; protein details: FLAG; label: 5' label.
In a further data set the target is MLE dsRBD1,2 K225E (UniProt P24785). In words: filter binding. Particulars: severely diminished but detectable; Filter binding: 20 mM HEPES/NaOH pH 8.0, 150 mM NaCl, 5 mM MgCl2, on ice; recombinant protein; residues 1-257; protein details: N-terminal His6 removed by TEV; label: 5' label.
A further data set addresses MLE dsRBD1 K53E (UniProt P24785). In words: filter binding. Particulars: 5 mM Mg2+; Filter binding: 20 mM HEPES/NaOH pH 8.0, 150 mM NaCl, 5 mM MgCl2, on ice; recombinant protein; residues 1-84; protein details: N-terminal His6 removed by TEV; label: 5' label.
For data set [9], the target named is MLE full-length K53+54E K53E,K54E (UniProt P24785). In words: filter binding. Particulars: 5 mM Mg2+; Filter binding: 20 mM HEPES/NaOH pH 8.0, 150 mM NaCl, 5 mM MgCl2, on ice; recombinant protein; residues 1-1293; protein details: FLAG; label: 5' label.
The target in a further data set is MLE full-length K225E (UniProt P24785). As to the kind of experiment: filter binding. Particulars: very little binding; Filter binding: 20 mM HEPES/NaOH pH 8.0, 150 mM NaCl, 5 mM MgCl2, on ice; recombinant protein; residues 1-1293; protein details: FLAG; label: 5' label.
Another data set deals with MLE dsRBD1 K54E (UniProt P24785). In words: filter binding. Particulars: 5 mM Mg2+; Filter binding: 20 mM HEPES/NaOH pH 8.0, 150 mM NaCl, 5 mM MgCl2, on ice; recombinant protein; residues 1-84; protein details: N-terminal His6 removed by TEV; label: 5' label.
Data set [10] addresses MLE dsRBD1 (UniProt P24785). As to the kind of experiment: ITC. Particulars: very small heat change; ITC: 10 mM HEPES pH 8.0, 75 mM NaCl, 2.5 mM MgCl2, 1 mM b-mercaptoethanol, 20 C; recombinant protein; residues 1-84; protein details: N-terminal His6 removed by TEV.
Data set [11] concerns the target MLE dsRBD1 K4E (UniProt P24785). In words: NMR titration. Particulars: 1.3x RNA; NMR: protein in 20 mM NaPi pH 6.5, 200 mM NaCl, 1 mM DTT; recombinant protein; residues 1-84; protein details: N-terminal His6 removed by TEV.
The target in data set [12] is MLE dsRBD1,2 (UniProt P24785). In words: SAXS. Particulars: 1:1 complex, SASDF62; recombinant protein; residues 1-257; protein details: N-terminal His6 removed by TEV.

For some assays here: A weaker result is weaker than the reference pair of the same experiment. For some assays here: For at least one entry, the source does not settle the construct or the ends of the probe. For some assays here: Negatives hold for the conditions tested. For some assays here: At least one verdict was read from the data and is not stated in words by the source. For some assays here: Whether high values mean tight binding is not given here for every scale.

What is called Kd is the equilibrium constant for the complex coming apart. For the sequence “ACUGAAGUCUUAAAAGACGUGUAAAAUGUUGCAAAUUAAGCAAAUAUAUAUGCAUAUAUGGGUAACGUUUUACGCGCCUUAACCAGU [SL7 (SL7long) RNA]”, the binding signal (fold affinity vs dsRBD1,2) with MLE dsRBD2 came to 0.5. The binding result with MLE full-length K54E is on record as “binds more weakly”; with MLE dsRBD1 K4E [1], “no binding”; with MLE dsRBD1,2 K54E, “binds more weakly”; in [3], “binds”; in [4] it was “no binding”; with MLE dsRBD1,2 K53E it was “binds more weakly”. Further, the binding result with MLE dsRBD1,2 K4E was “binds more weakly”; in data set [5] it was “no binding”; in data set [7], “binds more weakly”; in [8] it was “no binding”; in the data set with MLE full-length, “binds”; with MLE dsRBD1,2 K225E, “binds more weakly”. Also, the binding result with MLE dsRBD1 K53E is “no binding”; in data set [9], “binds more weakly”; with MLE full-length K225E it was “binds more weakly”; with MLE dsRBD1 K54E, “no binding”. Further, the binding signal (fold higher affinity than dsRBD2) with MLE dsRBD1,2 [2] is 2. Moreover, in the data set with MLE dsRBD1 [6] (label: 5' label), the Kd came out at 11.5 µM.
On to “AGACGUGUAAAAUGUUGC / GUAACGUUUUACGCGCCU [SL7 18mer duplex]”, for which the results for the binding result with MLE dsRBD1 [10], with MLE dsRBD1 K4E [11] and in the data set with MLE dsRBD1,2 [12] were “binds more weakly”, “binds more weakly” and “binds”, respectively.
Consider “GUGUAAAAUGUUGCAAUAUAUAGUAACGUUUUACGC [SL7 14merLoop]”, for which the binding result with MLE dsRBD1 [6] (label: 5' label in filter binding) is “binds more weakly”.

The record behind these values is PMC6486548.
